Results taken from US8648100B2, “Roflumilast for the treatment of pulmonary hypertension” (Takeda GmbH, priority 2005, dated 2014).
For at least one compound, name, drawing or mass did not settle the structure.

System: monocrotaline (MCT)-induced pulmonary arterial hypertension in rats (curative approach)
Test: Monocrotaline (MCT)-induced pulmonary hypertension in rats, curative approach (treatment day 21 to day 42)
Type: in vivo, adult male Wistar rats
Conditions: following MCT; Roflumilast (1.5 mg/kg/d) groups
Procedure: Rats were randomly assigned to three groups (8-10 animals in each group): two groups received Roflumilast 0.5 and 1.5 mg kg^−1 d^−1, respectively; and one group received vehicle. In the preventive treatment paradigm Roflumilast or vehicle were given once daily by gavage for 21 days starting immediately after a single subcutaneous injection of MCT (60 mg kg^−1). A group not receiving MCT served as control. In a curative approach rats were left untreated for 21 days following MCT (60 mg/kg s.c.) and than randomly divided into two groups, one received roflumilast (1.5 mg/kg/d) p.o. and the other vehicle, from day 21 to day 42.
At the end of the treatment period rats were anaethesized with sodium pentobarbital (60 mg/kg, i.p.). A polyvinyl catheter was introduced into the right jugular vein and pushed through the right ventricle into the pulmonary artery. Another polyethylene catheter was inserted into the right carotid artery. […] In each rat, 60 intraacinar arteries were analyzed and categorized as muscular (fully or partially) or nonmuscular to assess the degree of muscularization. In addition, intraacinar fully muscularized arteries were evaluated for measurements of medial wall thickness which was calculated and expressed as follows: index (%)=(External diameter−internal diameter)/External diameter×100%.
The data are expressed as means±SEM. […]

O=C(Nc1c(Cl)cncc1Cl)c1ccc(OC(F)F)c(OCC2CC2)c1 [Roflumilast, 3-cyclopropyl-methoxy-4-difluoromethoxy-N-(3,5-dichloropyrid-4-yl)benzamide]
Proliferating Cell Nuclear Antigen (PCNA) labeling of smooth muscle cells in the walls of distal pulmonary arteries: abolished
